# In the supplement of paper PMC8732350:
# Several values for one entry are separate records, joined by “and”; a condition that tells them apart may be missing. Equal values may be shown once. Where a name gives a salt, the structure may show the parent alone. ± gives the standard deviation of the averaged measurements. This is one part of the list. Repeats in this data set agree poorly, so a single value says little.
# Tested on: A549
# Assay: surface PD-L1 immunofluorescence intensity relative to IFN-gamma-only control (ratio); higher = more PD-L1 expression
# Conditions: 10 µM; exposure time 24 h; IFN-gamma 100 ng/mL
row,Structure (SMILES),surface PD-L1 immunofluorescence intensity
1,CC1(C)O[C@H]2CC(=O)OC[C@]23[C@H]2CC[C@@]4(C)[C@H](c5ccoc5)OC(=O)[C@H]5O[C@]54[C@]2(C)C(=O)C[C@@H]13 [Limonin],1.03
2,Cc1ccccc1C(=O)Nc1ccc(C(=O)N2CCCC(O)c3cc(Cl)ccc32)c(C)c1 (configuration not stated),0.974
3,COc1ccccc1N1CCN(CCN2C(=O)c3ccccc3C(C)(C)C2=O)CC1 [ARC 239 dihydrochloride],1
4,CC(=O)O[C@H]1CC[C@@]2(C)C(=CC[C@@H]3[C@@H]2CC[C@]2(C)C(c4cccnc4)=CC[C@@H]32)C1 [Abiraterone Acetate (CB7630)],0.981
5,CC(C)c1cc2c(c(O)c1O)[C@@]13CCCC(C)(C)[C@@H]1C[C@@H]2OC3=O [Carnosol],1.01
6,CN(C)C(=O)C(CCN1CCC(O)(c2ccc(Cl)cc2)CC1)(c1ccccc1)c1ccccc1 [Loperamide hydrochloride],0.981 ± 0.026
7,CC(C(=O)O)c1ccc2c(c1)[nH]c1ccc(Cl)cc12 (configuration not stated) [Carprofen],0.91
8,CCCCc1cc2ccccc2c(OCCN(C)C)n1 [Dimethisoquin hydrochloride],0.979
9,CC(NC(=O)C(Cc1ccccc1)NC(=O)OCc1ccccc1)C(=O)CF (configuration not stated),1.05
10,Cc1cccc(C)c1NC(=O)C(C)N (configuration not stated) [Tocainide hydrochloride],0.968
11,O=C1c2c(O)cccc2C([C@@H]2O[C@H](CO)[C@@H](O)[C@H](O)[C@H]2O)c2cc(CO)cc(O)c21 (some centres not stated) [Aloin (Barbaloin)],0.876
12,NC(N)=NC(N)=Nc1cccc(Cl)c1 [m-Chlorophenylbiguanide hydrochloride],1.01
13,COc1cc(C(=O)NC(=S)Nc2cccc(NC(=O)c3ccccc3)c2)cc(OC)c1OC,1.04
14,COc1cc([S+](C)[O-])ccc1-c1nc2cccnc2[nH]1 (configuration not stated) [Sulmazole],1.11
15,C[C@H](CCC(=O)O)[C@H]1CC[C@H]2[C@@H]3[C@H](O)C[C@@H]4C[C@H](O)CC[C@]4(C)[C@H]3C[C@H](O)[C@]12C [Cholic acid],0.982
16,O=c1ccc2cc(O)c(O)cc2o1 [Esculetin],0.972
17,COc1ccc(CCN(C)CCCN2CCc3cc(OC)c(OC)cc3CC2=O)cc1OC [Zatebradine hydrochloride],0.957
18,O=C(OCC(O)CO)c1ccccc1Nc1ccnc2cc(Cl)ccc12 (configuration not stated) [Glafenine hydrochloride],0.994
19,COc1cc(N)c(Cl)cc1C(=O)OCCCN1CCCCC1,1.07
20,CC(C(=O)O)c1ccc(-c2ccccc2)c(F)c1 (configuration not stated) [Flurbiprofen],0.988 ± 0.044
21,COc1cc2c(N3CCN(C(=O)Nc4ccc(OC(C)C)cc4)CC3)ncnc2cc1OCCCN1CCCCC1 [Tandutinib (MLN518)],1.06
22,NC(=O)c1cn(Cc2c(F)cccc2F)nn1 [Rufinamide (Banzel)],0.905
23,Cc1cc(O)c2c(c1)C(=O)c1cccc(O)c1C2=O [Chrysophanic acid (Chrysophanol)],1.04 ± 0.012
24,CN[C@@H](C)C(=O)N[C@H]1CN(C(=O)CC(C)C)CC[C@H]2CC[C@@H](C(=O)NC(c3ccccc3)c3ccccc3)N2C1=O,1.03

row,Structure (SMILES),surface PD-L1 immunofluorescence intensity
1,CN1[C@@H]2CC[C@H]1C[C@@H](OC(=O)c1c[nH]c3ccccc13)C2 [Tropisetron HCl],0.945
2,CN1[C@@H]2CC[C@H]1C[C@@H](OC(=O)c1c[nH]c3ccccc13)C2 [Tropisetron hydrochloride],1.02
3,COc1ccccc1N1CCN(CCCCN2C(=O)c3ccccc3C2=O)CC1 [NAN-190 hydrobromide],1.06
4,Cc1cccc(C)c1OCC(C)N (configuration not stated) [Mexiletine hydrochloride],0.959 ± 0.14
5,Nc1nc(CC(=O)Nc2ccc(CCNC[C@H](O)c3ccccc3)cc2)cs1 [Mirabegron (YM178)],1.04
6,NC[C@@H]1O[C@H](O[C@H]2[C@@H](O)[C@H](O[C@@H]3[C@@H](O)[C@H](N)C[C@H](N)[C@H]3O[C@H]3O[C@H](CO)[C@@H](O)[C@H](O)[C@H]3N)O[C@@H]2CO)[C@H](N)[C@@H](O)[C@@H]1O [Paromomycin sulfate],1.1
7,COc1ccccc1OCC(O)CO (configuration not stated) [Guaifenesin],0.952
8,Cc1cc(=O)[nH]c(=S)[nH]1 [Methylthiouracil],0.963
9,O=C(O)c1ccc(N2C(=O)C(=Cc3ccccc3)SC2=S)cc1,1.06
10,CC(=O)[C@H]1CC[C@H]2[C@@H]3C=CC4=CC(=O)CC[C@@]4(C)[C@@H]3CC[C@]12C [Dydrogesterone],0.953
11,Cc1c(N(C)C)c(=O)n(-c2ccccc2)n1C [Amidopyrine],0.914
12,Oc1c(Cl)cc(Cl)c(Cl)c1Cc1c(O)c(Cl)cc(Cl)c1Cl [Hexachlorophene],1.09 ± 0.053
13,C=C1C(=O)[C@]23[C@H](O)[C@H]1CC[C@H]2[C@@]12CO[C@]3(O)[C@@H](O)[C@@H]1C(C)(C)CC[C@@H]2O [Oridonin (Isodonol)],1.09
14,COc1ccc(/C=C/C(=O)Nc2ccccc2C(=O)O)cc1OC [Tranilast],1.03 ± 0.097
15,Oc1ccc(/C=C/c2cc(O)cc(O)c2)cc1 [Resveratrol],1.05 ± 0.052
16,CN1CCN(CCCN2c3ccccc3Sc3ccc(C(F)(F)F)cc32)CC1 [Trifluoperazine dihydrochloride],0.912
17,CC(S)C(=O)NCC(=O)O (configuration not stated) [Tiopronin (Thiola)],1.17
18,CN(C)CCN1C(=O)c2ccccc2N(C)c2ccccc21 [Dibenzepine hydrochloride],0.962
19,CNC[C@H](O)c1ccc(O)c(O)c1 [Epinephrine bitartrate (Adrenalinium)],1.01
20,CC(C)NCC(O)COc1ccccc1-n1cccc1 (configuration not stated) [Isamoltane hemifumarate],1.01
21,O=C(NCc1ccccc1)c1csc(Nc2ccncn2)n1 [Thiazovivin],0.94
22,CC[C@H](C)[C@H](N)C1=N[C@H](C(=O)N[C@@H](CC(C)C)C(=O)N[C@H](CCC(=O)O)C(=O)N[C@H](C(=O)N[C@H]2CCCCNC(=O)[C@H](CC(N)=O)NC(=O)[C@@H](CC(=O)O)NC(=O)[C@H](Cc3cnc[nH]3)NC(=O)[C@@H](Cc3ccccc3)NC(=O)[C@H]([C@@H](C)CC)NC(=O)[C@@H](CCCN)NC2=O)[C@@H](C)CC)CS1 [Bacitracin],0.974
23,CC(=O)C1=C(O)C=C2Oc3c(C(C)=O)c(O)c(C)c(O)c3[C@]2(C)C1=O [Usnic acid],1.09
24,O=C(CCc1ccc(O)cc1)c1c(O)cc(O)cc1O [Phloretin (Dihydronaringenin)],1.17

row,Structure (SMILES),surface PD-L1 immunofluorescence intensity
1,COc1cccc(-c2cc(=O)c3ccccc3o2)c1N,0.948 and 0.897 and 0.866
2,C=CCNC(N)=S [Allylthiourea],0.961
3,CN(C)CCOC(C)(c1ccccc1)c1ccccn1 (configuration not stated) [Doxylamine succinate],0.912
4,Oc1c(I)cc(Cl)c2cccnc12 [Clioquinol],1.07
5,C[C@@H](O)[C@H]1C(=O)N2C(C(=O)O)=C(S[C@@H]3CN[C@H](CNS(N)(=O)=O)C3)[C@H](C)[C@H]12 [Doripenem Hydrate],0.961
6,CC(C)(C#N)c1cc(Cn2cncn2)cc(C(C)(C)C#N)c1 [Anastrozole],0.971
7,CCc1cc(Nc2nccc(-c3c(-c4ccc(OC)c(C(=O)Nc5c(F)cccc5F)c4)nc4ccccn34)n2)c(OC)cc1N1CCC(N2CCN(S(C)(=O)=O)CC2)CC1,1.12
8,CN(C(=O)C(Cl)Cl)c1ccc(OC(=O)c2ccco2)cc1 [Diloxanide furoate],0.989
9,Nc1ccn([C@H]2CC[C@@H](CO)O2)c(=O)n1 [Zalcitabine],1.08
10,CN1CCC(=C2c3ccccc3CCc3cccnc32)CC1 [Azatadine dimaleate],1.01
11,Nc1nc2ccc(OC(F)(F)F)cc2s1 [Riluzole hydrochloride],0.9818 ± 0.0078
12,Nc1nc2ccc(OC(F)(F)F)cc2s1 [Riluzole],1.07
13,C(=C\c1ccccc1)/CN1CCN(C(c2ccccc2)c2ccccc2)CC1 [Cinnarizine],0.902
14,C[C@]1(O)C[C@@H](c2nc(-c3ccc4ccc(-c5ccccc5)nc4c3)c3c(N)nccn32)C1 [OSI-906 (Linsitinib)],1.05
15,C[C@@H]1CCO[C@H]2Cn3cc(C(=O)NCc4ccc(F)cc4F)c(=O)c(O)c3C(=O)N12,1
16,O=C(C1CCCCC1)N1CC(=O)N2CCc3ccccc3C2C1 (configuration not stated) [Praziquantel],0.774
17,CC(=O)NCCCS(=O)(=O)O [Acamprosate calcium],1.07
18,O=C(O)c1cc(/N=N/c2ccc(O)c(C(=O)O)c2)ccc1O [Olsalazine Sodium],1.06
19,CCOC(=O)O[C@]1(C(=O)COC(=O)CC)CC[C@H]2[C@@H]3CCC4=CC(=O)C=C[C@]4(C)[C@H]3[C@@H](O)C[C@@]21C [Prednicarbate],0.857
20,N#Cc1cc2c(OCC(O)CN3CCN(C(c4ccccc4)c4ccccc4)CC3)cccc2[nH]1 (configuration not stated),0.956
21,CC(C)(C)NCC(O)COc1cccc2c1CCC(=O)N2 (configuration not stated) [Carteolol hydrochloride],0.928
22,C=C1c2c(Cl)ccc(O)c2C(=O)C2=C(O)[C@]3(O)C(=O)C(C(N)=O)=C(O)[C@@H](N(C)C)[C@@H]3[C@@H](O)[C@H]12.O=C(O)c1cc(S(=O)(=O)O)ccc1O [Meclocycline sulfosalicylate],0.94
23,C/C=C1\C(=O)C[C@H]2[C@@H]3CCC4=CC(=O)CC[C@]4(C)[C@H]3CC[C@]12C [Z-Guggulsterone],1.05
24,C/C=C1\C(=O)C[C@H]2[C@@H]3CCC4=CC(=O)CC[C@]4(C)[C@H]3CC[C@]12C [Guggulsterone],0.974

# Some values from the results shown:
# surface PD-L1 immunofluorescence intensity, C[C@]1(O)C[C@@H](c2nc(-c3ccc4ccc(-c5ccccc5)nc4c3)c3c(N)nccn32)C1 [OSI-906 (Linsitinib)] reads 1.05
# surface PD-L1 immunofluorescence intensity, N#Cc1cc2c(OCC(O)CN3CCN(C(c4ccccc4)c4ccccc4)CC3)cccc2[nH]1 (configuration not stated) reads 0.956
# surface PD-L1 immunofluorescence intensity, C/C=C1\C(=O)C[C@H]2[C@@H]3CCC4=CC(=O)CC[C@]4(C)[C@H]3CC[C@]12C [Guggulsterone] reads 0.974
# surface PD-L1 immunofluorescence intensity, C[C@@H](O)[C@H]1C(=O)N2C(C(=O)O)=C(S[C@@H]3CN[C@H](CNS(N)(=O)=O)C3)[C@H](C)[C@H]12 [Doripenem Hydrate] reads 0.961
# surface PD-L1 immunofluorescence intensity, O=C(O)c1cc(/N=N/c2ccc(O)c(C(=O)O)c2)ccc1O [Olsalazine Sodium] reads 1.06
